{
  "sequences": {"note": "The chains behind the UniProt entries cited, without tags or fusion partners.", "UniProt Q9ESK9": "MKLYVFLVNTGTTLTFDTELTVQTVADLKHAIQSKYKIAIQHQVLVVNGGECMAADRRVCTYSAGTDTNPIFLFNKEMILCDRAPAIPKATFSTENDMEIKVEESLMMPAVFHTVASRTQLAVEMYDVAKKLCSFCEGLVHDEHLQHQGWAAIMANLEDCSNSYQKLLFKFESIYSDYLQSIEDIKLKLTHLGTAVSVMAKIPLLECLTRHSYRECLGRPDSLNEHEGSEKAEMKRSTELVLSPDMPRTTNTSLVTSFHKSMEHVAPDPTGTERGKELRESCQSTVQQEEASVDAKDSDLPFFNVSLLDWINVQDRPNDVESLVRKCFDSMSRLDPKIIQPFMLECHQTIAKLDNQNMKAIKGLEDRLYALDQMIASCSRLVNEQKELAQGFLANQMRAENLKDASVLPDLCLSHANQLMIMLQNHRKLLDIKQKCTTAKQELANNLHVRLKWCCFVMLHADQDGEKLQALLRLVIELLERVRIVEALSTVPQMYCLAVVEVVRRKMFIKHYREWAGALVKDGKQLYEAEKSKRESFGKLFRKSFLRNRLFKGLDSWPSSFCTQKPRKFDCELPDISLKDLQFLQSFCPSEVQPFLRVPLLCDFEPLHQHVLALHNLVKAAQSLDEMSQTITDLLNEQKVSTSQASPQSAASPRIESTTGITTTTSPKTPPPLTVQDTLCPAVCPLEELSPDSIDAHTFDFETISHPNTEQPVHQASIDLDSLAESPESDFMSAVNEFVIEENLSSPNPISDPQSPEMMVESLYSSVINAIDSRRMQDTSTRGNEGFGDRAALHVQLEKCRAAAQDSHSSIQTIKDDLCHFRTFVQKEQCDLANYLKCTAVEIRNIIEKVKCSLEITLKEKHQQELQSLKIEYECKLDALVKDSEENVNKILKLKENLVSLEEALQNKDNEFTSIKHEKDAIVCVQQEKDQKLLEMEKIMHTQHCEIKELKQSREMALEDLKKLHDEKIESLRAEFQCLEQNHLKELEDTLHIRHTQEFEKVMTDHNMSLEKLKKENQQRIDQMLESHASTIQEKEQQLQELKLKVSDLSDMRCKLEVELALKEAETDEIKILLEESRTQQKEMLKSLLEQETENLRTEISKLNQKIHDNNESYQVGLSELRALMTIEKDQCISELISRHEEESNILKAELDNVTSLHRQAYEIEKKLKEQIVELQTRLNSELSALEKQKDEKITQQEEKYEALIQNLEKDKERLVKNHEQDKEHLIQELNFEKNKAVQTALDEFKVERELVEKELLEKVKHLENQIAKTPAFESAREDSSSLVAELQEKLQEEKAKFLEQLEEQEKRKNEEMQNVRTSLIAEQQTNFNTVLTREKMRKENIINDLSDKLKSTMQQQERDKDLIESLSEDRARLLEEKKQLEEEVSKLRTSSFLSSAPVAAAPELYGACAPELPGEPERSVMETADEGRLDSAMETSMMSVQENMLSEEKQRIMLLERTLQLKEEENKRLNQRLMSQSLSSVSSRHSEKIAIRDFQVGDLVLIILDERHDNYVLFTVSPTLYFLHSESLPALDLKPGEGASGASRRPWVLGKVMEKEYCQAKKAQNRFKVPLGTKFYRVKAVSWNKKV", "UniProt O88597": "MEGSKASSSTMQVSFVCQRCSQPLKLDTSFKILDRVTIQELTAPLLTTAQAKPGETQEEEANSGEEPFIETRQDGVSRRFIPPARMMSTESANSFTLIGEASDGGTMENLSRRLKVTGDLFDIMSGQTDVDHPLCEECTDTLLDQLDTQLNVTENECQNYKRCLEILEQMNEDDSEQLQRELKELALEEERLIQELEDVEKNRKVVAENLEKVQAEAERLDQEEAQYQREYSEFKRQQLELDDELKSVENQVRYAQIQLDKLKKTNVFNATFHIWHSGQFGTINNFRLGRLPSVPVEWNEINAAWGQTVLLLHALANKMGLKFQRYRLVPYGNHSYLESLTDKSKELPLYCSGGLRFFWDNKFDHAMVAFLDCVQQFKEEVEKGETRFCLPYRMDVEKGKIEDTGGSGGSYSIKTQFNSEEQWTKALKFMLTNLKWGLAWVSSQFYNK"},
  "source": "paper doi:10.1101/812990",
  "assay_in_all_cases": "co-IP",
  "key": {"[1]": {"molecular_target": "T1, Plin3 (mouse (endogenous in NIH-3T3 cells or primary C57BL/6J hepatocytes)) (UniProt Q9DBG5)", "T1 sequence": "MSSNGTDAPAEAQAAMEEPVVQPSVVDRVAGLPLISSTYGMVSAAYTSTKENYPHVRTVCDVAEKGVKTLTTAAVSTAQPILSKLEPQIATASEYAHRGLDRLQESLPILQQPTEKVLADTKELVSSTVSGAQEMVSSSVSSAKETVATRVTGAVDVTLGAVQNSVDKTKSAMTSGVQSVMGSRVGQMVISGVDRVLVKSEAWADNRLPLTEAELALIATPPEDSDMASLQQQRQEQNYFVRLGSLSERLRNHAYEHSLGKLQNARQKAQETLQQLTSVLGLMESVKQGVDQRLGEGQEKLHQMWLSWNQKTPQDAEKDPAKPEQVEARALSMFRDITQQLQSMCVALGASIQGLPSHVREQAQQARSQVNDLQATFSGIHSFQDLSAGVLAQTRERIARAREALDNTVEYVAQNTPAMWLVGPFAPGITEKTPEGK"}, "[2]": {"molecular_target": "T1, Plin3 (mouse (endogenous in NIH-3T3 cells or primary C57BL/6J hepatocytes))", "remark": "listed apart in the source"}, "[3]": {"molecular_target": "Fip200 (mouse (endogenous in NIH-3T3 cells or primary C57BL/6J hepatocytes)) (UniProt Q9ESK9)"}},
  "note": "Like-named read-outs stand apart in the source and are kept apart here. These are yes or no findings as the source states them, for the method shown. Binding seen in cells or lysates may run through a third protein. Some binding calls cover weakened binding; strength is not graded here.",
  "data": [
    {"substance": "Fip200 (from UniProt Q9ESK9 1-1588)", "values": [
      {"measurement": "binding", "setting": "[1]", "result": "binds"},
      {"measurement": "binding", "setting": "[2]", "result": "binds"}
    ]},
    {"substance": "Beclin 1 (from UniProt O88597 1-448)", "values": [
      {"measurement": "binding", "setting": "[3]", "result": "binds"}
    ]}
  ]
}
